# In paper PMC9200754:
# Amino acid sequences for entries named in this document (tags omitted). Residues count along the entry.
# UniProt P19838, residues 1-433: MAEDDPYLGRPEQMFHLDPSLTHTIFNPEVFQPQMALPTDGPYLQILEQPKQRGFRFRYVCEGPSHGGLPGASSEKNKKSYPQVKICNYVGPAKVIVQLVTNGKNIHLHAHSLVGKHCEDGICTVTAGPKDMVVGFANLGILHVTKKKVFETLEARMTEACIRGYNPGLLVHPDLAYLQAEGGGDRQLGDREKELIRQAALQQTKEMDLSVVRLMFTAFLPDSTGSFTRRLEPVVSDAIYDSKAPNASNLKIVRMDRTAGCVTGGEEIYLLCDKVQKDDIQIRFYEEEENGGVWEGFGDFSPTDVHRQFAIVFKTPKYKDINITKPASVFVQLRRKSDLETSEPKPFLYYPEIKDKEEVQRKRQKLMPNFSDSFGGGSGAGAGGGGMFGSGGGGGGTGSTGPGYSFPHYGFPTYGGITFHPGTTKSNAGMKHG
# These are yes or no findings as the source states them, for the method shown. In cells and extracts the contact can be indirect. Some entries that bind do so weakly or less than the wild type. Where a sequence is shown, tags or fusion partners need not be part of it.
# B1: YFP-IRF9, Q00978 1-393 (protein)
# chain: MASGRARCTRKLRNWVVEQVESGQFPGVCWDDTAKTMFRIPWKHAGKQDFREDQDAAFFKAWAIFKGKYKEGDTGGPAVWKTRLRCALNKSSEFKEVPERGRMDVAEPYKVYQLLPPGIVSGQPGTQKVPSKRQHSSVSSERKEEEDAMQNCTLSPSVLQDSLNNEEEGASGGAVHSDIGSSSSSSSPEPQEVTDTTEAPFQGDQRSLEFLLPPEPDYSLLLTFIYNGRVVGEAQVQSLDCRLVAEPSGSESSMEQVLFPKPGPLEPTQRLLSQLERGILVASNPRGLFVQRLCPIPISWNAPQAPPGPGPHLLPSNECVELFRTAYFCRDLVRYFQGLGPPPKFQVTLNFWEESHGSSHTPQNLITVKMEQAFARYLLEQTPEQQAAILSLV
# B2: YFP-IRF9 (protein, UniProt Q00978 1-393)
# chain: B1 chain
# What was measured:
# [1] = target: Nluc-STAT2 (human), P52630; assay: FRET or BRET; details: remark: other sources report otherwise
# Nluc-p50 (human) = Nluc-p50 (human) (UniProt P19838); assay: FRET or BRET
Binder,binding [1],binding (Nluc-p50 (human))
B1,binds,–
B2,–,no binding
